Test results published in PMC12547551, “Lanostane–Meroterpene Conjugates with Unusual Aryl Ether Linkage and a Lanostane Dimer from Artificially Cultivated Fruiting Bodies of Ganoderma cf. hochiminhense” (ACS Omega, 2025).

Tested on: MCF-7 (breast cancer) cells
Test: Cytotoxicity against MCF-7 cells, resazurin fluorescent method
Assay type: cell-based
Conditions: Homo sapiens, MCF7

Structure (SMILES): CC/C(=C(\c1ccccc1)c1ccc(OCCN(C)C)cc1)c1ccccc1 [tamoxifen, reference compound]
- IC50: 36 µM
